Measurements taken from US20220041738A1.
Results are given in words; binding and its absence hold for the method and conditions named.

How the values were obtained:
[1] = target: human Fc (Sino Biological Inc.) (human); assay: ELISA, antigen coated at 1 ug/ml, hybridoma culture supernatant
[2] = target: human Fc (Sino Biological Inc.) (human); assay: condition: culture supernatant, concentration not given; ELISA, antigen coated at 1 µg/ml, hybridoma culture supernatant, ALP anti-rat IgG, O.D.492

binding [1]	binding [2]	Binder
no binding	no binding	rat anti-ALK2 monoclonal antibody A2-11E (antibody, V domains shown) VH: EVQLVETGGGLVQPGRSLKLSCVASGFTFSNYYMYWIRQAPGKGLEWISSINTDGGSTYYPDSVKGRFAISRDNAENTVYLQMNSLRSEDTATYYCAKSTPNIPLAYWGQGTLVTVSS VL: DIQMTQSPSLLSASVGDRVTLSCKASQNIYKYLNWFQQKLGEAPKLLIYYSNSLQTGIPSRFSGSGSGTDFTLTISSLQPEDVAIYFCFQYSSGPTFGPGTKLELKR
no binding	no binding	rat anti-ALK2 monoclonal antibody A2-15A (antibody, V domains shown) VH: EVQLVESGGGLVQPGRSLKLSCAASGFTFSHYYMAWVRQAPTKGLEWVASITNSGGSINYRDSVKGRFTISRDNAKSTLYLQMDSLRSEDTATYYCTREGGENYGGYPPFAYWGQGTLVTVSS VL: DIVLTQSPALAVSLGQRATISCRANQGVSLSRYNLMHWYQQKPGQKPKLLIYRSSNLASGIPARFSGSGSGTDFTLTINPVQADDIATYYCQQSRESPFTFGAGTKLELKR
no binding	no binding	rat anti-ALK2 monoclonal antibody A2-25C (antibody, V domains shown) VH: EVQLVESGGGLVQPGGSLKLSCAASGFTFSYYAMSWVCQAPTKGLEWVASISRGGDNTYYRDTVKGRFTTSRDNAKNTLYLQMDSLRSEDTATYYCARLNYNNYFDYWGQGVMVTVSS VL: DIQMTQSPASLSASLEEIVTITCQASQDIGNWLSWYQQKPGKSPQLLIYGATSLADGVPSRFSGSRSGTQYSLKISRLRVEDIGIYYCLQAYSAPFTFGSGTKLEIKR
no binding	no binding	rat anti-ALK2 monoclonal antibody A2-27D (antibody, V domains shown) VH: EVQLVESGGGLVQPGRSLKLSCLASGSTFSNYGMKWIRQAPGKGLEWVASISRSSTYIYYADTVKGRFTISRDNARNTLYLQMTSLRSEDTALYYCAAAISTPFYWYFDFWGPGTVVTVSS VL: EIVLTQSPTTMAASPGEKVTLNCLASSSVSYMTWYQQKSGASPKLWIYGTSNLASGVPNRFSGSGSGTSYSLAISSMEAEDVATYYCLHLTSYPPYTFGAGTKLELKR
